Measurements taken from patent US20180028693A1.
These are yes or no findings as the source states them, for the method shown. Some results given as binding are weak or reduced against the parent protein; the word gives no strength. Where a sequence is shown, tags or fusion partners need not be part of it.

Amino acid sequences for entries named in this document (tags omitted). A change or cut given only in a name is not applied to a line headed by its entry.
UniProt P06756: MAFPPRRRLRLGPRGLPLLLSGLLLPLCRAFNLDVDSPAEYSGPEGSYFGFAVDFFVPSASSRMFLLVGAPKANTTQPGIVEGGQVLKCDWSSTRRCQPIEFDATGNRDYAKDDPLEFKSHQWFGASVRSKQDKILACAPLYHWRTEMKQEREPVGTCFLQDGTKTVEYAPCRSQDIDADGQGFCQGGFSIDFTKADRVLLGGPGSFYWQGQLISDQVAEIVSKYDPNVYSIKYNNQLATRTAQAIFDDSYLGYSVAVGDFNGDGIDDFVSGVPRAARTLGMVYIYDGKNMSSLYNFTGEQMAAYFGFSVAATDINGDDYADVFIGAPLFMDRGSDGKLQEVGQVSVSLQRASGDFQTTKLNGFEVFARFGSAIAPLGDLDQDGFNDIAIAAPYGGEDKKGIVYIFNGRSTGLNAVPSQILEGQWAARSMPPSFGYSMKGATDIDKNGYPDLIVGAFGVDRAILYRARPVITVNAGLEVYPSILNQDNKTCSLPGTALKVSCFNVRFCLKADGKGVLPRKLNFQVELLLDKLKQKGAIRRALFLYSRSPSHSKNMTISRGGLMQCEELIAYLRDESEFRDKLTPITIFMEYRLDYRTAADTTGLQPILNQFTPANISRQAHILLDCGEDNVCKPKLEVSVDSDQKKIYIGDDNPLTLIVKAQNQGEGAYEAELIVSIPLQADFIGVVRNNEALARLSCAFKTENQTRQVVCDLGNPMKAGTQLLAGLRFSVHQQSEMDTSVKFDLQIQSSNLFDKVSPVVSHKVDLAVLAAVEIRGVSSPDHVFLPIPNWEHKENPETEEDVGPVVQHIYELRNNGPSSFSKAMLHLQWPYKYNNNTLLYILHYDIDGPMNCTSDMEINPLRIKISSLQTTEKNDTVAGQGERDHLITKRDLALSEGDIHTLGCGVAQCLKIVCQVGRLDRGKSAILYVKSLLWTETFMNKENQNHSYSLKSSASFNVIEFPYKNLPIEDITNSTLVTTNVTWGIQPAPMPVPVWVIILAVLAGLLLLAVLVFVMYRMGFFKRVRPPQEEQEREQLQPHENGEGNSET

Molecular target: integrin αvβ3 on U87 glioblastoma cells (UniProt P06756)
Test: confocal fluorescence of Alexa Fluor-488 labeled GVs after 24 hr on U87 cells

B1: GvpCWT-RGD (GvpC comprising a His-tag in the N-terminal region and an RGD tag fused to the C-terminus) (protein)
chain: MGHHHHHHSGISLMAKIRQEHQSIAEKVAELSLETREFLSVTTAKRQEQAEKQAQELQAFYKDLQETSQQFLSETAQARIAQAEKQAQELLAFHKELQETSQQFLSATAQARIAQAEKQAQELLAFYQEVRETSQQFLSATAQARIAQAEKQAQELLAFHKELQETSQQFLSATADARTAQAKEQKESLLKFRQDLFVSIFGSGCDCRGDCFC
For B1, the binding was “binds”.
